Data reported in article PMC11087511.

Key:
[1] = system: human alpha-thrombin (human); test: BLI; conditions: over 100-fold higher Kd than HD22-7A-DAB, aptamer domain only; 5' C6-amine; commercial protein; label: 3' TEG-biotin; folded or branched DNA
[2] = system: human alpha-thrombin (human); test: cited; conditions: commercial protein; folded or branched DNA

Sequence | binding result [1] | pKd [2]
AAAAAAAAGTCCGTGGTAGGGCAGGTTGGGGTGACT [Bio-HD22-7A-NH2] | binds more weakly | 
AGTCCGTGGTAGGGCAGGTTGGGGTGACT [HD22] |  | 9.30

pKd: −log10 of the molar value. For some assays here: Weaker means in comparison with the reference protein, sequence or condition of that experiment. For some assays here: The exact form of at least one protein or probe is not confirmed.
